Consider three molecules from article doi:10.1101/545400.

Amino acid sequences for entries named in this document (tags omitted).
UniProt O43353: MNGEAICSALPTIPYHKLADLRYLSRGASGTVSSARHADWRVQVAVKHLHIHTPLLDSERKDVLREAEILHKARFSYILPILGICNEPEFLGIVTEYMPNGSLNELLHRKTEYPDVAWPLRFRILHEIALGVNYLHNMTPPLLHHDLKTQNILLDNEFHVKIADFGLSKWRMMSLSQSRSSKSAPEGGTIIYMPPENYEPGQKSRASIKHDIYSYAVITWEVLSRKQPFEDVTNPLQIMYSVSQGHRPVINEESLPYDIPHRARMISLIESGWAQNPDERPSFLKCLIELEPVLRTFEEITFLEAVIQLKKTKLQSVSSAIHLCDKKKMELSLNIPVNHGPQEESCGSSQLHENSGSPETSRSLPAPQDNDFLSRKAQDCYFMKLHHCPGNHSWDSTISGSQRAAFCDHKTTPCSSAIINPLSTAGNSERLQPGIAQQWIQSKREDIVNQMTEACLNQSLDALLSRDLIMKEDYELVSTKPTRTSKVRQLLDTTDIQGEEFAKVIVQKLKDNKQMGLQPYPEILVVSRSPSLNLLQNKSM
UniProt P62258: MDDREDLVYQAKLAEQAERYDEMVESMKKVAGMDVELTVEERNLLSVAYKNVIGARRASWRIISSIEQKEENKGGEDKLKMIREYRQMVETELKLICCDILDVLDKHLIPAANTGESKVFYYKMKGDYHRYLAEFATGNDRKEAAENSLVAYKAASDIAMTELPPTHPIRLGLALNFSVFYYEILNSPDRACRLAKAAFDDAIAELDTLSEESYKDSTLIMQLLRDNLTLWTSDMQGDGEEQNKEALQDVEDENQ

For assay [1], the target named is EGFP-RIPK2 (receptor interacting serine/threonine kinase 2) (human) (UniProt O43353). Briefly: co-IP.
The target in assay [2] is endogenous RIPK2 (human (endogenous in HeLa)) (UniProt O43353). Briefly: co-IP.

No constants are given. Whether binding was seen depends on the method and setting. In cells and extracts the contact can be indirect. Some results given as binding are weak or reduced against the parent protein; the word gives no strength.

Regarding “14-3-3ε (endogenous) (from UniProt P62258 1-255)”, the binding entry in assay [1] is listed as “binds”.

B1: Erlin-2 (protein, UniProt O94905 1-339)
chain: MAQLGAVVAVASSFFCASLFSAVHKIEEGHIGVYYRGGALLTSTSGPGFHLMLPFITSYKSVQTTLQTDEVKNVPCGTSGGVMIYFDRIEVVNFLVPNAVYDIVKNYTADYDKALIFNKIHHELNQFCSVHTLQEVYIELFDQIDENLKLALQQDLTSMAPGLVIQAVRVTKPNIPEAIRRNYELMESEKTKLLIAAQKQKVVEKEAETERKKALIEAEKVAQVAEITYGQKVMEKETEKKISEIEDAAFLAREKAKADAECYTAMKIAEANKLKLTPEYLQLMKYKAIASNSKIYFGKDIPNMFMDSAGSVSKQFEGLADKLSFGLEDEPLETATKEN
On to B1, for which the binding result in assay [2] and in assay [1] was “binds” each time.

B2: Erlin-1 (protein, UniProt O75477 1-348)
chain: MNMTQARVLVAAVVGLVAVLLYASIHKIEEGHLAVYYRGGALLTSPSGPGYHIMLPFITTFRSVQTTLQTDEVKNVPCGTSGGVMIYIDRIEVVNMLAPYAVFDIVRNYTADYDKTLIFNKIHHELNQFCSAHTLQEVYIELFDQIDENLKQALQKDLNLMAPGLTIQAVRVTKPKIPEAIRRNFELMEAEKTKLLIAAQKQKVVEKEAETERKKAVIEAEKIAQVAKIRFQQKVMEKETEKRISEIEDAAFLAREKAKADAEYYAAHKYATSNKHKLTPEYLELKKYQAIASNSKIYFGSNIPNMFVDSSCALKYSDIRTGRESSLPSKEALEPSGENVIQNKESTG
For the molecule B2, the binding result in assay [2] and in assay [1] was “binds” throughout.
